{
  "source": "paper PMC6675128",
  "target": "T1, BCDIN3D tagged with a FLAG tag at its C-terminus (human) (UniProt Q7Z5W3)",
  "T1 sequence": "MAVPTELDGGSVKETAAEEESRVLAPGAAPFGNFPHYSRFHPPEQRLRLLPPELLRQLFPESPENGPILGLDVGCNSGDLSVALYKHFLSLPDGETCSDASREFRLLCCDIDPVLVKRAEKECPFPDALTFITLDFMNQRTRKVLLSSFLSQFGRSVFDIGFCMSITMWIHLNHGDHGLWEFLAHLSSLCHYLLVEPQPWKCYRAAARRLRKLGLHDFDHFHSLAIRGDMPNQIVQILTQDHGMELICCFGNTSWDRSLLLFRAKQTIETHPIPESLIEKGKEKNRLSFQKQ",
  "experiment": "affinity purification with mass spectrometry; anti-FLAG M2 beads on lysate of HeLa-S3-Flp-In-BCDIN3Df cells (20 mM HEPES pH7.5, 150 mM NaCl, 20% glycerol, 0.1% NP40, 1 mM EDTA, 4°C), 3xFLAG peptide elution; bands specific to BCDIN3Df against Control eluates cut out for LC-MS/MS",
  "note": "No constants are given. Whether binding was seen depends on the method and setting. In cells and extracts the contact can be indirect. A yes stands for co-enrichment or nearness to the bait. Other partners may have been found. Tags and fused reporters may be left off the sequences shown.",
  "data": [
    {"binder": "TRMT5 (enzyme, UniProt Q32P41 1-509) MVLWILWRPFGFSGRFLKLESHSITESKSLIPVAWTSLTQMLLEAPGIFLLGQRKRFSTMPETETHERETELFSPPSDVRGMTKLDRTAFKKTVNIPVLKVRKEIVSKLMRSLKRAALQRPGIRRVIEDPEDKESRLIMLDPYKIFTHDSFEKAELSVLEQLNVSPQISKYNLELTYEHFKSEEILRAVLPEGQDVTSGFSRIGHIAHLNLRDHQLPFKHLIGQVMIDKNPGITSAVNKINNIDNMYRNFQMEVLSGEQNMMTKVRENNYTYEFDFSKVYWNPRLSTEHSRITELLKPGDVLFDVFAGVGPFAIPVAKKNCTVFANDLNPESHKWLLYNCKLNKVDQKVKVFNLDGKDFLQGPVKEELMQLLGLSKERKPSVHVVMNLPAKAIEFLSAFKWLLDGQPCSSEFLPIVHCYSFSKDANPAEDVRQRAGAVLGISLEACSSVHLVRNVAPNKEMLCITFQIPASVLYKNQTRNPENHEDPPLKRQRTAEAFSDEKTQIVSNT", "values": [
      {"measurement": "binding", "result": "binds"}
    ]}
  ]
}
